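Human melanoma cell lines in 1,536-well plates were treated with two drugs together for 72 h, then fixed, stained and imaged. The read-out is cell count (nuclei) in % of the DMSO control; lower values mean stronger growth inhibition or killing. Concentrations were fixed for each drug; these are the lower of two levels, a fifth of the higher. These are primary screening values without error estimates.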
Only some of the drugs and lines screened are listed, without regard to their results.
An entry leaves out what has no value listed here.

Drugs:
OSU-03012, 1 µM: NCC(=O)Nc1ccc(-n2nc(C(F)(F)F)cc2-c2ccc3c(ccc4ccccc43)c2)cc1
lapatinib, 0.8 µM: CS(=O)(=O)CCNCc1ccc(-c2ccc3ncnc(Nc4ccc(OCc5cccc(F)c5)c(Cl)c4)c3c2)o1
cediranib, 0.4 µM: COc1cc2c(Oc3ccc4[nH]c(C)cc4c3F)ncnc2cc1OCCCN1CCCC1
GSK650394, 0.16 µM: O=C(O)c1ccc(-c2c[nH]c3ncc(-c4ccccc4)cc23)cc1C1CCCC1
YM155, 0.0004 µM: COCC[n+]1c2c(n(Cc3cnccn3)c1C)C(=O)c1ccccc1C2=O
tamatinib, 0.4 µM: COc1cc(Nc2ncc(F)c(Nc3ccc4c(n3)NC(=O)C(C)(C)O4)n2)cc(OC)c1OC
PF-04217903, 1 µM: OCCn1cc(-c2cnc3nnn(Cc4ccc5ncccc5c4)c3n2)cn1
dovitinib, 0.1 µM: CN1CCN(c2ccc3nc(-c4c(N)c5c(F)cccc5[nH]c4=O)[nH]c3c2)CC1

PF-04217903 and lapatinib gave A101D: 94.6; A375: 121; A2058: 98.4; C32: 106.
lapatinib and GSK650394 gave A101D: 80.5; A375: 77.2; A2058: 86.8; C32: 97.7.
cediranib and PF-04217903 gave A101D: 109; A375: 85.3; A2058: 85.0; C32: 89.0.
OSU-03012 and PF-04217903 gave A101D: 119; A375: 17.6; A2058: 97.5; C32: 103.
dovitinib and lapatinib gave A101D: 89.8; A375: 103; A2058: 87.6; C32: 97.4; COLO 792: 82.5.
dovitinib and GSK650394 gave A101D: 93.0; A375: 83.6; A2058: 89.9; C32: 96.2.
PF-04217903 and YM155 gave A101D: 99.6; A375: 92.0; A2058: 64.0; C32: 98.3.
PF-04217903 and tamatinib gave A101D: 72.1; A375: 85.7; A2058: 89.3; C32: 94.0.
lapatinib and tamatinib gave A101D: 72.0; A375: 69.6; A2058: 81.2; C32: 99.2.
dovitinib and PF-04217903 gave A101D: 89.4; A375: 69.2; A2058: 78.3; C32: 89.0.
YM155 and dovitinib gave A101D: 93.1; A375: 64.5; A2058: 76.3; C32: 107.
cediranib and OSU-03012 gave A101D: 103; A375: 13.5; A2058: 109; C32: 97.0.
OSU-03012 and YM155 gave A101D: 92.8; A375: 18.1; A2058: 74.9; C32: 108.
dovitinib and tamatinib gave A101D: 79.9; A375: 68.8; A2058: 75.2; C32: 99.8.
GSK650394 and cediranib gave A101D: 95.2; A375: 84.4; A2058: 90.5; C32: 94.7.
OSU-03012 and GSK650394 gave A101D: 103; A375: 25.0; A2058: 93.4; C32: 110.
dovitinib and OSU-03012 gave A101D: 105; A375: 15.1; A2058: 99.6; C32: 106.
GSK650394 and PF-04217903 gave A101D: 98.6; A375: 73.7; A2058: 103; C32: 100.
lapatinib and YM155 gave A101D: 83.7; A375: 49.0; A2058: 64.9; C32: 117.
OSU-03012 and tamatinib gave A101D: 72.8; A375: 13.2; A2058: 86.1; C32: 126.
YM155 and tamatinib gave A101D: 80.4; A375: 75.6; A2058: 58.4; C32: 84.9.
cediranib and dovitinib gave A101D: 84.6; A375: 68.2; A2058: 82.2; C32: 82.9.
OSU-03012 and lapatinib gave A101D: 103; A375: 21.5; A2058: 104; C32: 109.
tamatinib and cediranib gave A101D: 77.4; A375: 66.3; A2058: 86.1; C32: 93.4.

For reference, 2 entries once more:

{"combination": "dovitinib and PF-04217903", "A101D": 89.4, "A375": 69.2, "A2058": 78.3, "C32": 89.0}
{"combination": "OSU-03012 and lapatinib", "A101D": 103, "A375": 21.5, "A2058": 104, "C32": 109}

From a melanoma drug combination screen (doi:10.1371/journal.pone.0140310); values rounded.